PubChem BioAssay AID1224830 – NIAID – 2016
Test: 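Genes whose knock-down alters the TNF-alpha reporter response to LPS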 (primary screen). Cell system: human THP-1 monocytic leukaemia cells, TNF dual-luciferase reporter clone, PMA-differentiated to macrophage-like cells. Reagents: siRNA pool against human genes, 50 nM. Timing: LPS for 4 h, given about 3 days after siRNA transfection. Treatment: bacterial LPS (TLR4 ligand), 10 ng/ml. Read-out: 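TNF firefly reporter luminescence divided by renilla, normalised to the plate median, then turned into a robust z-score for each replicate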. Scale: TNF reporter robust z-score: higher = stronger TNF reporter response to LPS. Active means: 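a well is active when its z-score exceeds 2.8 or falls below -1.5; control wells carry no call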.
The deposit covers about 18,000 reagents; shown is a part drawn at random. About 2,900 of them (16%) count as active. 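Calls are made per well; low scores hint the gene aids the LPS response, high scores that it dampens it.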 Repeated entries: four replicate wells of each siRNA pool. No sequences are given here.

GRIK1 (glutamate ionotropic receptor kainate type subunit 1) | TNF reporter robust z-score: 1.06; outcome: inactive
GRIK1 (glutamate ionotropic receptor kainate type subunit 1) | TNF reporter robust z-score: 1.21; outcome: inactive
GRIK1 (glutamate ionotropic receptor kainate type subunit 1) | TNF reporter robust z-score: -0.09; outcome: inactive
GRIK1 (glutamate ionotropic receptor kainate type subunit 1) | TNF reporter robust z-score: 2.28; outcome: inactive
BAZ1B (bromodomain adjacent to zinc finger domain 1B) | TNF reporter robust z-score: 0.28; outcome: inactive
BAZ1B (bromodomain adjacent to zinc finger domain 1B) | TNF reporter robust z-score: -1.15; outcome: inactive
BAZ1B (bromodomain adjacent to zinc finger domain 1B) | TNF reporter robust z-score: -0.83; outcome: inactive
BAZ1B (bromodomain adjacent to zinc finger domain 1B) | TNF reporter robust z-score: -2.26; outcome: active

Hits, among the entries above:
BAZ1B (bromodomain adjacent to zinc finger domain 1B) | TNF reporter robust z-score: -2.26; outcome: active

Further reagents follow.
NUP214 (nucleoporin 214) | TNF reporter robust z-score: -0.42; outcome: inactive
NUP214 (nucleoporin 214) | TNF reporter robust z-score: 0.92; outcome: inactive
NUP214 (nucleoporin 214) | TNF reporter robust z-score: 1.32; outcome: inactive
NUP214 (nucleoporin 214) | TNF reporter robust z-score: 0.29; outcome: inactive
CALHM1 (calcium homeostasis modulator 1) | TNF reporter robust z-score: 0.18; outcome: inactive
CALHM1 (calcium homeostasis modulator 1) | TNF reporter robust z-score: 1.49; outcome: inactive
CALHM1 (calcium homeostasis modulator 1) | TNF reporter robust z-score: 0.23; outcome: inactive
CALHM1 (calcium homeostasis modulator 1) | TNF reporter robust z-score: 0.84; outcome: inactive
RETREG3 (reticulophagy regulator family member 3) | TNF reporter robust z-score: -0.71; outcome: inactive
RETREG3 (reticulophagy regulator family member 3) | TNF reporter robust z-score: -0.79; outcome: inactive
RETREG3 (reticulophagy regulator family member 3) | TNF reporter robust z-score: -0.75; outcome: inactive
RETREG3 (reticulophagy regulator family member 3) | TNF reporter robust z-score: -0.52; outcome: inactive
